System: ERRα
Assay: ERR luciferase reporter gene assay, antagonist mode
Format: cell-based
Details: Homo sapiens, read-out: ERRα (Antagonist) IC50

`Clc1ccccc1C(c1ccccc1)(c1ccccc1)n1ccnc1` [Clotrimazole] gave an IC50 of 11.9 µM.

Reference: paper PMC5486949 (SLAS discovery, 2017)
